Structures are written as SMILES. Where “and” joins values, the source holds several entries; their conditions need not be identical. Equal values may be shown once. This is one part of the list. Further columns of the screen follow, without active or inactive calls. Most of these compounds were active or inconclusive in the main read-out, so they are no random draw. The note in brackets gives the kind of curve behind each potency; many fits are weak.

The nature of this test: Cell signaling CRE-BLA (Fsk stim). As to conditions: CHO CRE-bla reporter (cAMP response element driving beta-lactamase), forskolin EC10, beta-lactamase ratio; measured here: 460 nm blue channel. The essentials: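 The 460nm/530nm emission ratio after CCF4 loading defined %Activity, from which AC50 values were obtained. CRE-bla CHO cells received compound dilution series together with an EC10 level of NKH 477 for 3 hours at 37 degrees Celsius.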
A word on the AC50: it is the concentration at which the activity in the assay is half-maximal. For the compound `COc1ccc(C2CC3CC(c4ccccc4)N2O3)cc1` (stereo not drawn), the AC50 was 0.0316 µM [falling, partial curve, poor fit].

With `c1ccc2c(c1)Cn1nc(Cc3nc4c(s3)CCCC4)nc1-2`, the AC50 was 25.1 µM [rising, single point].

For the compound `CCOC(=O)c1ccc(NC(=O)CSc2nc3c(c(=O)n2CC)SC(C)C3)cc1` (stereo not drawn), the AC50 is 10 µM [rising, partial curve].

For `CCOC(=O)C1=C(C)N=c2s/c(=C\C(=O)OC)c(=O)n2C1c1ccc(OC)cc1` (stereo not drawn), the AC50 was 15.8 µM [falling, single point].

With `COc1ccc(NC2=Nc3ccccc3CC2)cc1`, the AC50 was 3.16 µM [falling, single point].

Take `CC(C)Cn1c(SCC(=O)NC(=O)NC2CCCC2)nc2ccccc21`: the AC50 was 0.398 µM [falling, partial curve].

In the case of `O=C(Cc1cn2ccsc2n1)NCCc1ccc(F)cc1`, the concentration at half-maximal activity (AC50) is 5.01 µM [falling, single point].

In the case of `Cc1ccc(Nc2cc(C)nc3nc(C)nn23)cc1`, the AC50 was 10 µM [rising, partial curve].

`O=C(Oc1cc2oc(=O)c3c(c2cc1Cl)CCCC3)c1ccco1`: the AC50 is 15.8 µM [rising, single point].

For the compound `COc1ccc(CCNC(=O)Cn2cnc3c(cnn3C(C)(C)C)c2=O)cc1OC`, the AC50 is 3.98 µM [rising, partial curve].

Turning to `CCCCOCCCNC(=O)c1ccccc1OCC`, the AC50 was 0.126 µM [rising, full curve].

Turning to `CCC(Oc1ccccc1)C(=O)N1CCN(c2ccccn2)CC1` (stereo not drawn), the AC50 was 0.1 µM [falling, partial curve].

In the case of `COC(=O)C1C(=O)c2c([nH]c(C(=O)OC3CCCC3C)c2C)CC1C` (stereo not drawn), the AC50 was 0.316 µM [rising, full curve, poor fit].

Turning to `CCN(CCCNC(=O)c1c(C)cc(=O)oc1C)c1cccc(C)c1`, the AC50 was 25.1 µM [rising, single point].

On to `COc1ccccc1C(=O)N1CCc2ccccc21`, for which the AC50 was 0.631 µM [falling, full curve, poor fit].

Turning to `O=C(NCCn1ccc2ccccc21)c1ccc(S(=O)(=O)N2CCCCC2)cc1`, the AC50 is 10 µM [rising, partial curve].

For the compound `CCN(CC)c1nc(N(CC)CC)[nH]c(=O)n1`, the AC50 is 0.00398 µM [falling, full curve, poor fit].

Regarding `COc1ccc(N/C(C)=C2/C(=O)C(=O)N(CCO)C2c2ccc(Br)cc2)cc1` (stereo not drawn), the AC50 is 31.6 µM [falling, single point].

For `N#Cc1cc2c(=O)n3ccccc3nc2n(CCCn2ccnc2)c1=N`, the AC50 is 10 µM [rising, partial curve].

Take `Cc1ccc(NC(=O)c2cc(-c3ccc(C)o3)nc3ccccc23)nc1`: the AC50 is 20 µM [rising, single point].

Regarding `CC1(C)Cc2ccccc2C2CC(O)C(=O)N21` (stereo not drawn), the AC50 was 12.6 µM [falling, single point].

As for `O=C(c1ccncc1)c1nccn1-c1ccccn1`, the AC50 was 3.98 µM [falling, single point].

Take `OC(CN1c2ccccc2Sc2ccccc21)Cn1nnc2ccccc21` (stereo not drawn): the AC50 was 10 µM [falling, single point].

Consider `Cc1cc(C)c(C#N)c(N2CCCC2)n1`, for which the AC50 was 25.1 µM [rising, single point].

On to `Cc1ccc(C(=O)Nc2ncc(Cc3ccc(F)cc3)s2)o1`, for which the AC50 was 1.26 µM [rising, full curve, poor fit].

Consider `Fc1ccc(-n2c(Cc3ccccc3)nnc2SCc2nc(-c3cccs3)no2)cc1`, for which the AC50 is 12.6 µM [rising, single point].

As to `Cc1cc(C)nc(-n2c(Nc3ccccc3)cc(=O)c3c(C)n(-c4ccccc4)c(=O)nc32)n1`, the AC50 is 1.26 µM [falling, partial curve].

As to `CCOc1ccccc1-c1nc(-c2ccc(C)nc2OC)no1`, the AC50 was 12.6 µM [rising, partial curve].

For `COc1cc(-c2nnc(SCc3cc(=O)oc4cc(C)ccc34)o2)cc(OC)c1OC`, the AC50 was 2.51 µM [rising, full curve].

As for `Cn1cc(CN2CCc3ccccc3C2)c2ccccc21`, the AC50 is 12.6 µM [falling, single point].

Turning to `CCN(C(=O)c1cn(CC)c(=O)c2cc(OC)c(OC)cc12)c1ccccc1C`, the AC50 was 12.6 µM [rising, single point].

Take `N#CCCn1c(=O)c(-c2cccs2)nc2cnc(OCc3ccccc3)nc21`: the AC50 was 1.26 µM [rising, full curve].

On to `Cc1ccc(C)c(-n2nnnc2SCC(=O)c2ccc3c(c2)NC(=O)CO3)c1`, for which the AC50 is 12.6 µM [falling, partial curve, poor fit].

As for `O=C(NCCC1=CCCCC1)C1CCN(S(=O)(=O)c2cccs2)CC1`, the AC50 is 0.501 µM [falling, partial curve].

In the case of `Cc1cc(C)nc(NC(=NCCc2c[nH]c3ccccc23)NC(=O)c2ccco2)n1`, the AC50 is 0.316 µM [rising, partial curve].

Take `Cc1nc2ccccn2c1P(=O)(N1CCCCC1)N1CCCCC1`: the AC50 is 1.58 µM [falling, partial curve].

Turning to `CCOC(=O)c1c(C)[nH]c(C(=O)Cn2nnc(-c3ccccc3)n2)c1C`, the AC50 was 3.16 µM [rising, full curve].

Regarding `CCN(CC)c1ccc(/C=N/n2nnnc2N)c(O)c1`, the half-maximal activity concentration (AC50) was 12.6 µM [rising, partial curve].

Consider `O=C(O)C1CCN(S(=O)(=O)c2cccnc2)CC1`, for which the half-maximal activity concentration (AC50) was 25.1 µM [rising, partial curve].

Turning to `CCn1nnc(-c2ccccc2NC(=O)c2cc(OC)c(OC)c(OC)c2)n1`, the AC50 was 2 µM [rising, full curve].

Take `CCC(C)NC(=O)c1c(C)cc(=O)oc1C` (stereo not drawn): the AC50 was 0.126 µM [falling, full curve, poor fit].

Take `CCC(OC(=O)C(NC(=O)c1ccccc1)c1ccccc1)C(=O)Nc1cc(C)on1` (stereo not drawn): the AC50 was 1.26 µM [falling, partial curve, poor fit].

For the compound `COc1ccc(C(=O)OCn2nnc3ccccc3c2=O)cc1OC`, the AC50 is 2 µM [rising, full curve].

With `[N-]=[N+]=CC(=O)C(Cc1ccccc1)N1C(=O)c2ccccc2C1=O` (stereo not drawn), the AC50 is 3.98 µM [rising, single point].

For `COc1ccccc1N1CCN(CC(=O)Nc2cccc(F)c2)CC1`, the half-maximal activity concentration (AC50) is 0.398 µM [falling, full curve].

With `CN1CCN(c2ncc3nc(-c4ccc(Cl)cc4)c(=O)n(C)c3n2)CC1`, the AC50 is 2 µM [rising, full curve].

Consider `CCC(C)Nc1nc2c(c(=O)n(C)c(=O)n2C)n1Cc1cccc(C)c1` (stereo not drawn), for which the AC50 is 10 µM [rising, single point].

In the case of `CN1CC(=O)NC1=NC(=O)C12CC3CC(CC(C3)C1)C2`, the AC50 is 3.16 µM [falling, single point].

Take `CCOC(=O)c1ccccc1NC(=O)c1cc2sccc2n1C`: the AC50 was 10 µM [rising, partial curve].

Take `COCCn1c(=O)c(-c2cccc(C#N)c2)nc2cnc(Nc3ccccc3)nc21`: the AC50 is 3.98 µM [rising, partial curve].

Turning to `Cc1ccc(S(=O)(=O)c2c(N)n(/N=C/c3ccco3)c3nc4ccccc4nc23)cc1C`, the AC50 is 10 µM [rising, partial curve].

Regarding `CC(C)c1nc(N2CCOCC2)c(C#N)c2c1CCCC2`, the AC50 is 12.6 µM [rising, partial curve, poor fit].

On to `COc1nnc(-c2ccc(N3CCOCC3)c(NC(=O)c3ccco3)c2)c2ccccc12`, for which the AC50 is 2.51 µM [rising, full curve].

Turning to `COCCn1c(=O)c(CCc2ccccc2)nc2cnc(N3CCOCC3)nc21`, the AC50 is 20 µM [rising, partial curve].

For the compound `CCc1cc(=O)oc2c(C)c(O)c(CN(C)C)cc12`, the AC50 was 12.6 µM [rising, partial curve].

For `CCOC(=O)N1CCN(C(=O)c2ccc(Cn3c(=S)[nH]c4cc5c(cc4c3=O)OCO5)cc2)CC1`, the AC50 was 0.0631 µM [falling, full curve, poor fit].

For the compound `Cc1ccc(OCC(=O)Nc2cccc(-c3nnc(-c4ccccc4)o3)c2)cc1`, the AC50 was 0.00398 µM [falling, full curve, poor fit].

Take `COc1cccc(C2=NOC(C(=O)NCc3ccc(F)cc3)C2)c1` (stereo not drawn): the AC50 was 12.6 µM [rising, partial curve].

In the case of `Cn1c(NC(=O)c2ccccc2Br)cc(=O)n(C)c1=O`, the AC50 is 10 µM [rising, partial curve].

Turning to `O=c1c(-c2ccccc2)nc2cnc(N3CCNCC3)nc2n1Cc1cccs1`, the AC50 was 2.51 µM [rising, full curve].

`NC1=C(c2ccc(F)cc2)C(=O)CS1`: the AC50 was 12.6 µM [rising, single point].

As for `CCN1CCN(Cc2c(O)c(Cl)cc3c(C)cc(=O)oc23)CC1`, the AC50 is 3.16 µM [rising, partial curve].

As for `CC(=O)O[C@]1(C(C)=O)CC[C@@H]2[C@@H]3C=C(C)C4=CC(=O)CC[C@@]4(C)[C@H]3CC[C@]21C`, the AC50 is 10 µM [rising, partial curve, poor fit].

Turning to `CCN1CCCC1CNC(=O)c1cc2c(-c3cccc(OC)c3)nn(C)c2s1` (stereo not drawn), the AC50 is 10 µM [rising, single point].

Regarding `CCCCOc1cc(C[C@@H]2CNC(=O)N2)ccc1OC`, the AC50 was 5.01 µM [rising, full curve] and 100 nM [rising, full curve].

As for `CCn1c(SCC(=O)NCc2ccco2)nc2c1c(=O)n(C)c(=O)n2C`, the AC50 is 0.251 µM [falling, full curve, poor fit].

On to `O=C(CCNc1ccc(F)c(Cl)c1)c1ccco1`, for which the AC50 is 0.631 µM [falling, full curve].

As to `O=S(=O)(c1ccc2c(c1)OCCO2)N1CCC(c2nc3ccc(Cl)cc3[nH]2)CC1`, the AC50 is 0.794 µM [falling, full curve].
